# No constants are given. Whether binding was seen depends on the method and setting.
# Molecular target: DGCR8^ΔHBR (residues 489-751), co-expressed with Drosha (human) (UniProt Q8WYQ5)
# Assay: SEC-MALS; purified co-expressed Drosha/DGCR8 complex; Superdex 200 Increase 10/300; 20 mM Tris pH 8.0, 750 mM NaCl, 1 mM TCEP, 10% glycerol; both purified
binder,measurement,value
"DGCR8^ΔHBR (residues 489-751), co-expressed with Drosha (domain or fragment, human, UniProt Q8WYQ5 489-751, looked up, DGCR8, human, residues 489-751 (tandem dsRBDs and C-terminal tail, no HBR); One copy per Drosha in MP^ΔHBR; also called DGCR8 lacking the HBR; the DGCR8 chain of MP^ΔHBR) LITLSVQDAPTKKEFVINPNGKSEVCILHEYMQRVLKVRPVYNFFECENPSEPFGASVTIDGVTYGSGTASSKKLAKNKAARATLEILIPDFVKQTSEEKPKDSEELEYFNHISIEDSRVYELTSKAGLLSPYQILHECLKRNHGMGDTSIKFEVVPGKNQKSEYVMACGKHTVRGWCKNKRVGKQLASQKILQLLHPHVKNWGSLLRMYGRESSKMVKQETSDKSVIELQQYAKKNKPNLHILSKLQEEMKRLAEEREETRK",binding,no binding
